Experimental findings from the supplement of paper PMC12819154, “High-throughput peptide-centric local stability assay extends protein–ligand identification to membrane proteins, tissues and bacteria” (Nature Structural & Molecular Biology, 2025) are described below.

Chains of the proteins cited; added tags and fusions are not shown. Lines headed by an entry give the natural chain unless they say otherwise; changes in a name come on top.
UniProt Q5TCZ1: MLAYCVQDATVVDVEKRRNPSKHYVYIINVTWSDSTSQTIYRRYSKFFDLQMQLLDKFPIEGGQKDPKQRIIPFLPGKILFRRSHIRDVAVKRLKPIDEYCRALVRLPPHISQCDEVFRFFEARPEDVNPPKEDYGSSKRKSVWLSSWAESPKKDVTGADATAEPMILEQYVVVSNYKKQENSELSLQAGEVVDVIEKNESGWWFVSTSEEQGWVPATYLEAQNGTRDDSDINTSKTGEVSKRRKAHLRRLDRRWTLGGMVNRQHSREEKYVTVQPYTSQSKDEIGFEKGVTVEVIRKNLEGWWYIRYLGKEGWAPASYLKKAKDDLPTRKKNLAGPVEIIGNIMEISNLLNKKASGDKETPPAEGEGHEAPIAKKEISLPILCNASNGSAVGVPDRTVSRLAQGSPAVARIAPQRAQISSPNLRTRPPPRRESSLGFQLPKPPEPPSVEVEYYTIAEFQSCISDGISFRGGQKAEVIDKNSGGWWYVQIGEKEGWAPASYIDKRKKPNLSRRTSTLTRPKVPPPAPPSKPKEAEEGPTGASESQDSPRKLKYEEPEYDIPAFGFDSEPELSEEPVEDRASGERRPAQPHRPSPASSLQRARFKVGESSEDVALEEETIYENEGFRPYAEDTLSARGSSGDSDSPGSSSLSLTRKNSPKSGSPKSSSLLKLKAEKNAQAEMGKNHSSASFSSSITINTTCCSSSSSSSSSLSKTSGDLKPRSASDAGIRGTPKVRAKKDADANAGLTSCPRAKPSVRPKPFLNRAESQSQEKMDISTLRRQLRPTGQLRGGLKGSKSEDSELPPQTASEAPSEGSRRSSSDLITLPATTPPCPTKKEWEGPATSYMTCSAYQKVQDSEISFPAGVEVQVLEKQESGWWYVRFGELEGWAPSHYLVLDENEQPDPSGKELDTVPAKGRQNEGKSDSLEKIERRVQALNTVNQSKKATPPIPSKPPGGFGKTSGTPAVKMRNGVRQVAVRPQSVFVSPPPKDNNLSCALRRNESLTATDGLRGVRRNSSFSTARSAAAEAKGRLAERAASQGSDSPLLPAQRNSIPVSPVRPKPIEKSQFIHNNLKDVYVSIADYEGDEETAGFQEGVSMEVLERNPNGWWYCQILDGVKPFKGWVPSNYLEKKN
UniProt Q5VYV7: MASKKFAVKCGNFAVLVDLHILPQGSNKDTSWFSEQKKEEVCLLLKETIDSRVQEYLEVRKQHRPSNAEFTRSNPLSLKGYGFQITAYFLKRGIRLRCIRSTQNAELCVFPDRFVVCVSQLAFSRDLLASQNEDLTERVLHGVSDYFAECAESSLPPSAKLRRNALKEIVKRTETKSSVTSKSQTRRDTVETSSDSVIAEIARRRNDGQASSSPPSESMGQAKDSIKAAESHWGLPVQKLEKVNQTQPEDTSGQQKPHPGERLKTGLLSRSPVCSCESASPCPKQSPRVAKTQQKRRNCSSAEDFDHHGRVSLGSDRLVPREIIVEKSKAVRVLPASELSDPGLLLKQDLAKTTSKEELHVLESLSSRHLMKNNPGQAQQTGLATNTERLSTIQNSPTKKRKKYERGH
UniProt Q5T2D3, whole entry: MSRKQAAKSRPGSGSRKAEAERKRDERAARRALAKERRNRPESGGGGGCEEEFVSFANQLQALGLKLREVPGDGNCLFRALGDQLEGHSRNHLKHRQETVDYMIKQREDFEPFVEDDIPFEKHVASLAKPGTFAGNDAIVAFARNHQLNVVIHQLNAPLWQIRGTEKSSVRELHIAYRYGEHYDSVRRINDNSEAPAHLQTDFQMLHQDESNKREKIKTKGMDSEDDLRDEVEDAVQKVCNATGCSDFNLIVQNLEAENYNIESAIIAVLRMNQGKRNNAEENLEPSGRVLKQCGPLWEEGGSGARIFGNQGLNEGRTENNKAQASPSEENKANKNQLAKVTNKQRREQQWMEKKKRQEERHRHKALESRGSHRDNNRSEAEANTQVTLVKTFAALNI
UniProt Q5U5X0: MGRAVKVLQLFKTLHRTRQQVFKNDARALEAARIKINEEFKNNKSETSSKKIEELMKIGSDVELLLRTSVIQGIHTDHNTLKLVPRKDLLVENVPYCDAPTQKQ
UniProt Q5T5Y3: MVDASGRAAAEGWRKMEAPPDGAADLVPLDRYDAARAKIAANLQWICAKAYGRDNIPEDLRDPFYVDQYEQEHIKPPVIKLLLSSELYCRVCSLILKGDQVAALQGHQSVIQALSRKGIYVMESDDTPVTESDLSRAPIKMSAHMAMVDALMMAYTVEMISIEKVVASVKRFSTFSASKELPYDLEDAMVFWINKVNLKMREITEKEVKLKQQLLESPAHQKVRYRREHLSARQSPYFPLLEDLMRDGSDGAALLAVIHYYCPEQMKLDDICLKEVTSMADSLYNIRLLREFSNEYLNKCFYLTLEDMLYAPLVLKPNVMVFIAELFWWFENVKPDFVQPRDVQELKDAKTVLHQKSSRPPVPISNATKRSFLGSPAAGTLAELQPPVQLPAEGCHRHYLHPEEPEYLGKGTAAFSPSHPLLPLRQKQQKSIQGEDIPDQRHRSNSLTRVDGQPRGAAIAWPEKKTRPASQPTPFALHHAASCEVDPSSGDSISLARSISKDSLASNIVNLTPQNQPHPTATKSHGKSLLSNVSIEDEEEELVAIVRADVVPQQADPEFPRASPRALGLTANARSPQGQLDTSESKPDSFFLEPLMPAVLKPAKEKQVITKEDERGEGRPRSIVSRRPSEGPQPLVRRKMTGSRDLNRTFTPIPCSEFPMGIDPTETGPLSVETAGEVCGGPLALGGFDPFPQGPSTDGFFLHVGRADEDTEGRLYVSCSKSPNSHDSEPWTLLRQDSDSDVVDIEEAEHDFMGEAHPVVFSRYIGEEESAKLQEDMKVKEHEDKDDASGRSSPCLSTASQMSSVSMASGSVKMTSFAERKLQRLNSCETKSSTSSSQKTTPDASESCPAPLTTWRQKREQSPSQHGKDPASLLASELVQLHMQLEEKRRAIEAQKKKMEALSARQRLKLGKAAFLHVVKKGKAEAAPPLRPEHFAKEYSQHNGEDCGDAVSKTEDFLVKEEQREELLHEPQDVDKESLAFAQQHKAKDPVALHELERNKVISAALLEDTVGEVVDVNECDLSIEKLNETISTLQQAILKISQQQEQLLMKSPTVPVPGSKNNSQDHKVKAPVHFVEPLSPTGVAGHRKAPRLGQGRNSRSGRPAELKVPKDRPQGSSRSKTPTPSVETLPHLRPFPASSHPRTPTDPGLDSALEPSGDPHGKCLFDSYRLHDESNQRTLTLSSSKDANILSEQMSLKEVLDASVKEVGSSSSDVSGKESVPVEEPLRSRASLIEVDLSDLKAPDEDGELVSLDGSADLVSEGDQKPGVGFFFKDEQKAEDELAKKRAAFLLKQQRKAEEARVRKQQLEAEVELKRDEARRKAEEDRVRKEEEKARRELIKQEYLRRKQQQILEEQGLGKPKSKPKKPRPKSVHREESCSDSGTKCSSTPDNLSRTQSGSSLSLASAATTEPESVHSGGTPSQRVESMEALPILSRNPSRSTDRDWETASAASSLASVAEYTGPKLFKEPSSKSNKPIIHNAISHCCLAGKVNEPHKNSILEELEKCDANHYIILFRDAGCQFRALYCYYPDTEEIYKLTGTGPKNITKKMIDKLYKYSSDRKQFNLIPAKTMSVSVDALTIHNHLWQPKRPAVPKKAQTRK
UniProt Q5EBL2: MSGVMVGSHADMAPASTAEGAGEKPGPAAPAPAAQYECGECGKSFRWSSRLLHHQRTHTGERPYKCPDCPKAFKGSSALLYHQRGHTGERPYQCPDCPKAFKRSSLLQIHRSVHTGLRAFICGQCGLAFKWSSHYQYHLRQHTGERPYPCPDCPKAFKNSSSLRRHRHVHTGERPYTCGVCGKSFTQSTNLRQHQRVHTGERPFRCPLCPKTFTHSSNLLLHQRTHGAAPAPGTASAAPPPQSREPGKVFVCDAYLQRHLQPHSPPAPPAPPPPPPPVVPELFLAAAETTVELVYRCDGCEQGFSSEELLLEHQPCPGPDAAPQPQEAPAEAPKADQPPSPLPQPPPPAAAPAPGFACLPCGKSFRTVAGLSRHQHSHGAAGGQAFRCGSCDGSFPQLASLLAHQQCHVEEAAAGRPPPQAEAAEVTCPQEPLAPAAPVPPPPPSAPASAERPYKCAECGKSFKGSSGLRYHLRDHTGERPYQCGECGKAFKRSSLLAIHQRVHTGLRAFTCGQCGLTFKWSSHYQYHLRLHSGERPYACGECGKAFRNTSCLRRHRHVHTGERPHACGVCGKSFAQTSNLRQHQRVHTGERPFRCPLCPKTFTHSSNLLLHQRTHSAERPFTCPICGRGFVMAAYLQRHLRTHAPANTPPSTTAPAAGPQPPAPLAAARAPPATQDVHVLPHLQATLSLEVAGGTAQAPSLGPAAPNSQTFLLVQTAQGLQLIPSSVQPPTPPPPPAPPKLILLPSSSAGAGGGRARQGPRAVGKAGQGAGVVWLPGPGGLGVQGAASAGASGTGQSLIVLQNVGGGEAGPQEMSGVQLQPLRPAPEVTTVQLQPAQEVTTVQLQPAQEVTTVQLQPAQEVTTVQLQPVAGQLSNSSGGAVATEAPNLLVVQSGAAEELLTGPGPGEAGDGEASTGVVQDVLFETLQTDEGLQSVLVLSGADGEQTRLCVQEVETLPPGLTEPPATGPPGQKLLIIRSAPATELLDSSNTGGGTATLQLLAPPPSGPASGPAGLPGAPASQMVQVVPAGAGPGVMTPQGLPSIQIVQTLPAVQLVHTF
UniProt Q5RIA9: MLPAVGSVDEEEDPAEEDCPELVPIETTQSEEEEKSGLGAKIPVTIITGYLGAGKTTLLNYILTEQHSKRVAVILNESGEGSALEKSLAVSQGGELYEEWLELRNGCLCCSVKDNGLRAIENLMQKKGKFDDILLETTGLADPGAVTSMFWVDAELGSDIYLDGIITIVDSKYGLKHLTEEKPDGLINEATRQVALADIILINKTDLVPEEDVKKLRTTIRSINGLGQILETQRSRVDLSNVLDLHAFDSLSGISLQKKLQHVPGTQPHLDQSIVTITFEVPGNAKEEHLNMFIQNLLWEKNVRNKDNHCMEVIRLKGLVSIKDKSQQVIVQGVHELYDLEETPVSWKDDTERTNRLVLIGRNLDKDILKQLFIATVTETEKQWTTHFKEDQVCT
UniProt Q5JS54: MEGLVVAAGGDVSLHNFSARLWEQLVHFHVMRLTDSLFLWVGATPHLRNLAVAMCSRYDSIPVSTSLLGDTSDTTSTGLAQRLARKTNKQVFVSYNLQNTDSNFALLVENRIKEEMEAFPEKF
UniProt Q5C9Z4: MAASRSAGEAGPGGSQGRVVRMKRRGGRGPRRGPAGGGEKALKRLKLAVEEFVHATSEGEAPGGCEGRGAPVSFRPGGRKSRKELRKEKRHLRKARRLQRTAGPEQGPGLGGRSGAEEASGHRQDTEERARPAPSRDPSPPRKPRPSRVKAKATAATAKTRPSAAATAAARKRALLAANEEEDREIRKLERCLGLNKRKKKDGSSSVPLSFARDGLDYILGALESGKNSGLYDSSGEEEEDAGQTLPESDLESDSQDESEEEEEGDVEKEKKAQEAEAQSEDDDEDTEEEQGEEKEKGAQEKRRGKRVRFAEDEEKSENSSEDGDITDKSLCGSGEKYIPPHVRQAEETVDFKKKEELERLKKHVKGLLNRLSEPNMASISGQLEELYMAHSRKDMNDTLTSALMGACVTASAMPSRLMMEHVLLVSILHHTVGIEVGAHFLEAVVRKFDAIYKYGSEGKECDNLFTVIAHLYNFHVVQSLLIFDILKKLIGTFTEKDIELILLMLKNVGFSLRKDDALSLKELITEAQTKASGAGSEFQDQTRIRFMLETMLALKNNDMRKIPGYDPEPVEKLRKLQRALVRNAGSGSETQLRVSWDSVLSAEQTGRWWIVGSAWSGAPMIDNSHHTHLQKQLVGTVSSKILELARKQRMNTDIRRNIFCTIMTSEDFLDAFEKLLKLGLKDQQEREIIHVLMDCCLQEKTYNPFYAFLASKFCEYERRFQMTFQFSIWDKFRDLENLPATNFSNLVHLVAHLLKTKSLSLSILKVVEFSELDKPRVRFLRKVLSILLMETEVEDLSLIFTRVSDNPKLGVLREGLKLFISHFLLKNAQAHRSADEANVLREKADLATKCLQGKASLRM
UniProt Q5TF39: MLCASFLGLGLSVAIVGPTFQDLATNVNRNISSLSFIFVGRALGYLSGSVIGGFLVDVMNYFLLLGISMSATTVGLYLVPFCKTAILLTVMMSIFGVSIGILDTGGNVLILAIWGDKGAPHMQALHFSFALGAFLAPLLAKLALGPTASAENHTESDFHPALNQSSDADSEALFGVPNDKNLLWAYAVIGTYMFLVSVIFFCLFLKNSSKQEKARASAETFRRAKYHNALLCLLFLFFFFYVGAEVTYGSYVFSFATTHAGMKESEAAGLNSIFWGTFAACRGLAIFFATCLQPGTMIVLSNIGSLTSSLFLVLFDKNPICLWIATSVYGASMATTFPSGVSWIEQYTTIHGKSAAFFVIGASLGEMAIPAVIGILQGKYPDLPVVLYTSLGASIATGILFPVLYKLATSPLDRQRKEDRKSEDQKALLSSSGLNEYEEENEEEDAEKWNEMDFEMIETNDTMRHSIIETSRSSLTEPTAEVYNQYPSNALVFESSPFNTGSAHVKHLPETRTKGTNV

This is one part of the list. Most values lie at the level of the controls, where differences are scatter.

Compound in this experiment: CN[C@@H]1C[C@H]2O[C@@](C)([C@@H]1OC)n1c3ccccc3c3c4c(c5c6ccccc6n2c5c31)C(=O)NC4 [staurosporine]
Nature of the experiment: log2 fold change of tryptic peptide abundance, ligand vs vehicle (limited proteolysis) (log2 ratio); higher = more trypsin-susceptible (destabilized). The conditions noted are these: ligand concentration: 20 uM; sample: K562 cleared lysate; digestion: 4 min, 22 C (HT-PELSA RT4min, Orbitrap Astral).
On to “UniProt Q5VT97 (peptide sequence: VCCHGTVVLPTLFR, peptide start residue: 758)”, for which the log2 fold change turned out to be 0.542.

With “COQ5 (peptide sequence: VYQVFESVAK, peptide start residue: 68) (UniProt Q5HYK3)”, the log2 fold change was -0.114. With “TBC1D10B (peptide sequence: WLDMFSNWDKWLSR, peptide start residue: 335) (UniProt Q4KMP7)”, the log2 fold change came to 0.398. As for “RBM48 (peptide sequence: AITSSEAVDR, peptide start residue: 264) (UniProt Q5RL73)”, the log2 fold change is -0.357.

In the case of “SH3PXD2A (peptide sequence: RPAQPHRPSPASSLQR, peptide start residue: 585) (UniProt Q5TCZ1)”, the log2 fold change was -0.266. For the target “SLX4IP (peptide sequence: NCSSAEDFDHHGR, peptide start residue: 298) (UniProt Q5VYV7)”, the log2 fold change is 0.644.

“UniProt Q5T2D3 (peptide sequence: AQASPSEENK, peptide start residue: 323)”: the log2 fold change is -0.521. As for “SNAP47 (peptide sequence: SCSVWHAASGLMGR, peptide start residue: 368) (UniProt Q5SQN1)”, the log2 fold change is 0.389. Take “VARS2 (peptide sequence: EGFFKPEYQAR, peptide start residue: 120) (UniProt Q5ST30)”: the log2 fold change is -0.266.

As for “LYRM7 (peptide sequence: KIEELMK, peptide start residue: 51) (UniProt Q5U5X0)”, the log2 fold change amounted to 0.257. With “CAMSAP1 (peptide sequence: EYSQHNGEDCGDAVSKTEDFLVK, peptide start residue: 938) (UniProt Q5T5Y3)”, the log2 fold change was determined as 1.13.

Regarding “PAGE2B (peptide sequence: IEDEPGDGPDVR, peptide start residue: 80) (UniProt Q5JRK9)”, the log2 fold change is -0.161. In the case of “UniProt Q5TAX3 (peptide sequence: SCKVNAANLPGPK, peptide start residue: 72)” it was -0.367. Regarding “UniProt Q5EBL2 (peptide sequence: SFAQTSNLR, peptide start residue: 574)”, the log2 fold change stood at 0.22. Take “CBWD5 (peptide sequence: HLTEEKPDGLINEATR, peptide start residue: 177) (UniProt Q5RIA9)”: the log2 fold change came out at 0.00043. Consider “PSMG4 (peptide sequence: NLAVAMCSR, peptide start residue: 49) (UniProt Q5JS54)”, for which the log2 fold change is -0.222.

For “NOM1 (peptide sequence: LSEPNMASISGQLEELYMAHSRK, peptide start residue: 372) (UniProt Q5C9Z4)”, the log2 fold change stood at 0.713. Turning to “VPS13D (peptide sequence: VPVVFTQHGVAEPR, peptide start residue: 3525) (UniProt Q5THJ4)”, the log2 fold change amounted to 0.588.

On to “UniProt Q5TF39 (peptide sequence: HSIIETSR, peptide start residue: 465)”, for which the log2 fold change was -0.0843. In the case of “CCDC18 (peptide sequence: EVLETELQNAHGELK, peptide start residue: 944) (UniProt Q5T9S5)”, the log2 fold change came out at 0.428. As to “TRMT12 (peptide sequence: QKLFDTQHR, peptide start residue: 40) (UniProt Q53H54)”, the log2 fold change was 0.419. With “UniProt Q5VSL9 (peptide sequence: TMMLVVFK, peptide start residue: 682)”, the log2 fold change is -0.108.

For “EXOSC6 (peptide sequence: GGGPAGAGGEAPAALR, peptide start residue: 78) (UniProt Q5RKV6)”, the log2 fold change is 0.462.

In the case of “C5orf22 (peptide sequence: ILQELYQFK, peptide start residue: 274) (UniProt Q49AR2)”, the log2 fold change was -0.0871.

For “UniProt Q5FWF5 (peptide sequence: NFSQCLESK, peptide start residue: 511)”, the log2 fold change amounted to 0.354. In the case of “GPAT3 (peptide sequence: VKDIFKEEQQK, peptide start residue: 411) (UniProt Q53EU6)” it was -0.0182; in that of “DNAJC21 (peptide sequence: NFAWKEEYDTR, peptide start residue: 163) (UniProt Q5F1R6)”, -0.169.
